The data set is described as follows: Brain concentration by mass spectrometry from brains harvested after tremor recording. The following applies: CFB/SK2 SC100×100, at minimally efficacious dose.

On to `Cc1cc(C)n(-c2nc(NC3CCC(F)(F)CC3)cc(N3CCOCC3)n2)n1` [Compound 1], for which the “Calculated % SK2 SC100” value is given as 24%.

`Cc1ccn(-c2nc(NC3CCC(F)(F)CC3)cc(N3CCOCC3)n2)n1` [Compound 2]: the “Calculated % SK2 SC100” value is on record as 16%.

The values above are taken from patent US20180207138A1, “METHODS FOR THE TREATMENT OF TREMORS BY POSITIVE MODULATION OF SK CHANNELS” (Cadent Therapeutics, Inc., priority 2017, published 2018).
